# Results as given in the supplement of paper PMC8728848.
# This is one part of the list.
# Tests used:
# Experiment in all cases: glycan array binding signal (z-score within array); higher = stronger binding
# Details in all cases: glycan notation: IUPAC condensed, linker removed
# [1] = target: Neu5Ac(a2-3)Gal(b1-3)GalNAc
# Summary of the method: (§1)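 From the Consortium for Functional Glycomics database, 3228 arrays were curated, keeping only those whose protein sequence was available. Binding is given as a within-array Z-score averaged across arrays sharing a protein sequence and across linkers. Negative Z-scores can be read as non-binding.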
# [2] = target: Neu5Ac(a2-3)Gal(b1-3)GalNAc(b1-3)Gal(a1-4)Gal(b1-4)Glc
# Summary of the method: as §1
# [3] = target: Neu5Ac(a2-3)Gal(b1-3)GalNAc(b1-4)[Neu5Ac(a2-3)]Gal(b1-4)Glc
# Summary of the method: as §1
# [4] = target: Neu5Ac(a2-3)Gal(b1-3)GalNAc(b1-4)[Neu5Ac(a2-8)Neu5Ac(a2-3)]Gal(b1-4)Glc
# Summary of the method: as §1
# [5] = target: Neu5Ac(a2-3)Gal(b1-3)GalNAc6S
# Summary of the method: as §1
# [6] = target: Neu5Ac(a2-3)Gal(b1-3)GlcNAc
# Summary of the method: as §1
# [7] = target: Neu5Ac(a2-3)Gal(b1-3)GlcNAc(b1-2)Man
# Summary of the method: as §1
# [8] = target: Neu5Ac(a2-3)Gal(b1-3)GlcNAc(b1-2)Man(a1-3)[GlcNAc(b1-4)][Neu5Ac(a2-3)Gal(b1-3)GlcNAc(b1-2)Man(a1-6)]Man(b1-4)GlcNAc(b1-4)GlcNAc
# Summary of the method: as §1
# [9] = target: Neu5Ac(a2-3)Gal(b1-3)GlcNAc(b1-2)Man(a1-3)[Neu5Ac(a2-3)Gal(b1-3)GlcNAc(b1-2)Man(a1-6)]Man(b1-4)GlcNAc(b1-4)GlcNAc
# Summary of the method: as §1
# [10] = target: Neu5Ac(a2-3)Gal(b1-3)GlcNAc(b1-3)Gal(b1-3)GlcNAc
# Summary of the method: as §1
# [11] = target: Neu5Ac(a2-3)Gal(b1-3)GlcNAc(b1-3)Gal(b1-4)GlcNAc
# Summary of the method: as §1
# [12] = target: Neu5Ac(a2-3)Gal(b1-3)GlcNAc(b1-3)GalNAc
# Summary of the method: as §1
# [13] = target: Neu5Ac(a2-3)Gal(b1-3)GlcNAc(b1-4)Gal(b1-4)Glc
# Summary of the method: as §1
# [14] = target: Neu5Ac(a2-3)Gal(b1-3)GlcNAc(b1-6)GalNAc
# Summary of the method: as §1
# [15] = target: Neu5Ac(a2-3)Gal(b1-3)GlcNAc6S
# Summary of the method: as §1
# [16] = target: Neu5Ac(a2-3)Gal(b1-3)[Fuc(a1-4)]GlcNAc
# Summary of the method: as §1
# [17] = target: Neu5Ac(a2-3)Gal(b1-3)[Fuc(a1-4)]GlcNAc(b1-3)Gal(b1-3)[Fuc(a1-4)]GlcNAc
# Summary of the method: as §1
# [18] = target: Neu5Ac(a2-3)Gal(b1-3)[Fuc(a1-4)]GlcNAc(b1-3)Gal(b1-4)[Fuc(a1-3)]GlcNAc
# Summary of the method: as §1
# [19] = target: Neu5Ac(a2-3)Gal(b1-3)[GlcNAc(b1-6)]GalNAc
# Summary of the method: as §1
# [20] = target: Neu5Ac(a2-3)Gal(b1-3)[Neu5Ac(a2-6)]GalNAc
# Summary of the method: as §1
# [21] = target: Neu5Ac(a2-3)Gal(b1-3)[Neu5Ac(a2-6)]GlcNAc(b1-3)[Fuc(a1-3)[Gal(b1-4)]GlcNAc(b1-6)]Gal(b1-4)Glc
# Summary of the method: as §1
# [22] = target: Neu5Ac(a2-3)Gal(b1-3)]Neu5Ac(a2-3)Gal(b1-4)]GlcNAc
# Summary of the method: as §1
# Neu5Ac(a2-3)Gal(b1-4)Glc = target: Neu5Ac(a2-3)Gal(b1-4)Glc
# Summary of the method: as §1
# [23] = target: Neu5Ac(a2-3)Gal(b1-4)GlcNAc
# Summary of the method: as §1
# [24] = target: Neu5Ac(a2-3)Gal(b1-4)GlcNAc(b1-2)Man
# Summary of the method: as §1
# [25] = target: Neu5Ac(a2-3)Gal(b1-4)GlcNAc(b1-2)Man(a1-3)[GlcNAc(b1-4)][Neu5Ac(a2-3)Gal(b1-4)GlcNAc(b1-2)Man(a1-6)]Man(b1-4)GlcNAc(b1-4)GlcNAc
# Summary of the method: as §1
# [26] = target: Neu5Ac(a2-3)Gal(b1-4)GlcNAc(b1-2)Man(a1-3)[Neu5Ac(a2-3)Gal(b1-4)GlcNAc(b1-2)Man(a1-6)]Man(b1-4)GlcNAc(b1-4)GlcNAc
# Summary of the method: as §1
# [27] = target: Neu5Ac(a2-3)Gal(b1-4)GlcNAc(b1-2)Man(a1-3)[Neu5Ac(a2-3)Gal(b1-4)GlcNAc(b1-2)Man(a1-6)]Man(b1-4)GlcNAc(b1-4)[Fuc(a1-6)]GlcNAc
# Summary of the method: as §1
# [28] = target: Neu5Ac(a2-3)Gal(b1-4)GlcNAc(b1-2)Man(a1-3)[Neu5Ac(a2-6)Gal(b1-4)GlcNAc(b1-2)Man(a1-6)]Man(b1-4)GlcNAc(b1-4)GlcNAc
# Summary of the method: as §1
# [29] = target: Neu5Ac(a2-3)Gal(b1-4)GlcNAc(b1-2)[Neu5Ac(a2-3)Gal(b1-4)GlcNAc(b1-4)]Man(a1-3)[GlcNAc(b1-4)][Neu5Ac(a2-3)Gal(b1-4)GlcNAc(b1-2)[Neu5Ac(a2-3)Gal(b1-4)GlcNAc(b1-6)]Man(a1-6)]Man(b1-4)GlcNAc(b1-4)GlcNAc
# Summary of the method: as §1
# [30] = target: Neu5Ac(a2-3)Gal(b1-4)GlcNAc(b1-2)[Neu5Ac(a2-3)Gal(b1-4)GlcNAc(b1-4)]Man(a1-3)[GlcNAc(b1-4)][Neu5Ac(a2-3)Gal(b1-4)GlcNAc(b1-4)Man(a1-6)]Man(b1-4)GlcNAc(b1-4)GlcNAc
# Summary of the method: as §1
# [31] = target: Neu5Ac(a2-3)Gal(b1-4)GlcNAc(b1-2)[Neu5Ac(a2-3)Gal(b1-4)GlcNAc(b1-6)]Man(a1-6)[Neu5Ac(a2-3)Gal(b1-4)GlcNAc(b1-2)Man(a1-3)]Man(b1-4)GlcNAc(b1-4)GlcNAc
# Summary of the method: as §1
# [32] = target: Neu5Ac(a2-3)Gal(b1-4)GlcNAc(b1-2)[Neu5Ac(a2-3)Gal(b1-4)GlcNAc(b1-6)]Man(a1-6)[Neu5Ac(a2-3)Gal(b1-4)GlcNAc(b1-2)Man(a1-3)][GlcNAc(b1-4)]Man(b1-4)GlcNAc(b1-4)GlcNAc
# Summary of the method: as §1
# [33] = target: Neu5Ac(a2-3)Gal(b1-4)GlcNAc(b1-3)Gal
# Summary of the method: as §1
# [34] = target: Neu5Ac(a2-3)Gal(b1-4)GlcNAc(b1-3)Gal(b1-3)GlcNAc
# Summary of the method: as §1
# [35] = target: Neu5Ac(a2-3)Gal(b1-4)GlcNAc(b1-3)Gal(b1-4)GlcNAc
# Summary of the method: as §1
# [36] = target: Neu5Ac(a2-3)Gal(b1-4)GlcNAc(b1-3)Gal(b1-4)GlcNAc(b1-2)Man(a1-3)[Neu5Ac(a2-3)Gal(b1-4)GlcNAc(b1-3)Gal(b1-4)GlcNAc(b1-2)Man(a1-6)]Man(b1-4)GlcNAc(b1-4)GlcNAc
# Summary of the method: as §1
# [37] = target: Neu5Ac(a2-3)Gal(b1-4)GlcNAc(b1-3)Gal(b1-4)GlcNAc(b1-3)Gal(b1-4)GlcNAc
# Summary of the method: as §1
# [38] = target: Neu5Ac(a2-3)Gal(b1-4)GlcNAc(b1-3)Gal(b1-4)GlcNAc(b1-3)Gal(b1-4)GlcNAc(b1-2)Man(a1-3)[Neu5Ac(a2-3)Gal(b1-4)GlcNAc(b1-3)Gal(b1-4)GlcNAc(b1-3)Gal(b1-4)GlcNAc(b1-2)Man(a1-6)]GalNAc
# Summary of the method: as §1
# [39] = target: Neu5Ac(a2-3)Gal(b1-4)GlcNAc(b1-3)Gal(b1-4)GlcNAc(b1-3)GalNAc
# Summary of the method: as §1
# [40] = target: Neu5Ac(a2-3)Gal(b1-4)GlcNAc(b1-3)Gal(b1-4)GlcNAc(b1-3)[Neu5Ac(a2-3)Gal(b1-4)GlcNAc(b1-3)Gal(b1-4)GlcNAc(b1-6)]GalNAc
# Summary of the method: as §1
# [41] = target: Neu5Ac(a2-3)Gal(b1-4)GlcNAc(b1-3)Gal(b1-4)GlcNAc(b1-6)[Gal(b1-3)]GalNAc
# Summary of the method: as §1
# [42] = target: Neu5Ac(a2-3)Gal(b1-4)GlcNAc(b1-3)Gal(b1-4)[Fuc(a1-3)]GlcNAc
# Summary of the method: as §1
# [43] = target: Neu5Ac(a2-3)Gal(b1-4)GlcNAc(b1-3)GalNAc
# Summary of the method: as §1
# [44] = target: Neu5Ac(a2-3)Gal(b1-4)GlcNAc(b1-3)[Neu5Ac(a2-3)Gal(b1-4)GlcNAc(b1-6)]GalNAc
# Summary of the method: as §1
binder,measurement,setting,value
Clec18A (Homo sapiens) (protein) PFHTCDLRIDGDCFMVSSEADTYYRARMKCQRKGGVLAQIKRQKVQDILAFYLGRLETTNEVIDSDFETRNFWIGLTYKTAKDSFRWATGEHQAFTSFAFGQPDNHGFGNCVELQASAAFNWNDQRCKTRNRYICQ,glycan array binding signal (z-score),[1],-0.675
same,glycan array binding signal (z-score),[2],2.87
same,glycan array binding signal (z-score),[3],-0.742
same,glycan array binding signal (z-score),[4],-0.047
same,glycan array binding signal (z-score),[5],-0.925
same,glycan array binding signal (z-score),[6],-0.801
same,glycan array binding signal (z-score),[7],1.04
same,glycan array binding signal (z-score),[8],-0.098
same,glycan array binding signal (z-score),[9],-0.827
same,glycan array binding signal (z-score),[10],-0.819
same,glycan array binding signal (z-score),[11],0.065
same,glycan array binding signal (z-score),[12],-0.304
same,glycan array binding signal (z-score),[13],-0.859
same,glycan array binding signal (z-score),[14],-0.322
same,glycan array binding signal (z-score),[15],-0.553
same,glycan array binding signal (z-score),[16],-0.727
same,glycan array binding signal (z-score),[17],-0.623
same,glycan array binding signal (z-score),[18],-0.484
same,glycan array binding signal (z-score),[19],-0.725
same,glycan array binding signal (z-score),[20],-0.803
same,glycan array binding signal (z-score),[21],0.111
same,glycan array binding signal (z-score),[22],0.45
same,glycan array binding signal (z-score),Neu5Ac(a2-3)Gal(b1-4)Glc,-0.688
same,glycan array binding signal (z-score),[23],-0.878
same,glycan array binding signal (z-score),[24],0.243
same,glycan array binding signal (z-score),[25],-0.728
same,glycan array binding signal (z-score),[26],-0.481
same,glycan array binding signal (z-score),[27],-0.241
same,glycan array binding signal (z-score),[28],-0.398
same,glycan array binding signal (z-score),[29],-0.652
same,glycan array binding signal (z-score),[30],-0.566
same,glycan array binding signal (z-score),[31],0
same,glycan array binding signal (z-score),[32],-0.848
same,glycan array binding signal (z-score),[33],-0.85
same,glycan array binding signal (z-score),[34],-0.866
same,glycan array binding signal (z-score),[35],-0.852
same,glycan array binding signal (z-score),[36],-0.022
same,glycan array binding signal (z-score),[37],-0.761
same,glycan array binding signal (z-score),[38],0.057
same,glycan array binding signal (z-score),[39],-0.74
same,glycan array binding signal (z-score),[40],-0.569
same,glycan array binding signal (z-score),[41],0.247
same,glycan array binding signal (z-score),[42],-0.342
same,glycan array binding signal (z-score),[43],-0.727
same,glycan array binding signal (z-score),[44],-0.68
